Among the data in PMC4068365 are binding values, retold here.

Protein sequences, listed by entry. Tags and fused reporters are not part of them. Lines headed by an entry give the natural chain unless they say otherwise; changes in a name come on top. Chains listed by the source or under a name are the forms on record and can include a tag or linker. Residues count along the entry.
FH 10–12 (complement factor H, CCP modules 10–12) (P08603, residues 566-745): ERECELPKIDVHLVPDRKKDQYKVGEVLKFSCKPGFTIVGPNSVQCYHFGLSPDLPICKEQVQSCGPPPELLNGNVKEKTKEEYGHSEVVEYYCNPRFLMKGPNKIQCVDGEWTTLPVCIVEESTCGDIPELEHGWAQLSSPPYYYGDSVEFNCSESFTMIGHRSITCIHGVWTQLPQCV
FH 11–12 (complement factor H, CCP modules 11–12) (P08603, form named): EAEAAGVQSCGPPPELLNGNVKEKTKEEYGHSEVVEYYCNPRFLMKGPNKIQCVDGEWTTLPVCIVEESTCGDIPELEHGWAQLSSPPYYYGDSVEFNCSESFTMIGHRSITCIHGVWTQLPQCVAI
FH 10–11 (complement factor H, CCP modules 10–11) (P08603, form named): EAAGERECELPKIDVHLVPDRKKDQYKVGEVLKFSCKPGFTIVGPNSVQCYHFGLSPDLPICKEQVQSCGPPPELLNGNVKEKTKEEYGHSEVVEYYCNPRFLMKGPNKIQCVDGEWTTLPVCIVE

These are yes or no findings as the source states them, for the method shown.

Experiment [1] addresses FH 10–12 (complement factor H, CCP modules 10–12) (human) (UniProt P08603). As to the kind of experiment: SEC; elution volume from a calibrated size-exclusion column (Hi-Load 16/60 Superdex 75) during purification; both purified. (In general: SEC sorts molecules by how far they enter the pores of the column.)
For experiment [2] the target is unchanged. Nature of the experiment: SAXS; synchrotron SAXS, 20 °C, phosphate-buffered saline, 0.3–10.7 mg/mL, extrapolated to infinite dilution; mass from I(0) against bovine serum albumin and from the dummy-atom model volume; both purified.
The target in experiment [3] is FH 11–12 (complement factor H, CCP modules 11–12) (human) (UniProt P08603). As to the kind of experiment: SEC; elution volume from a calibrated size-exclusion column (Hi-Load 16/60 Superdex 75) during purification; both purified.
Experiment [4] shares this target. As to the kind of experiment: SAXS; synchrotron SAXS, 20 °C, phosphate-buffered saline, 0.3–10.7 mg/mL, extrapolated to infinite dilution; mass from I(0) against bovine serum albumin and from the dummy-atom model volume; both purified.
Experiment [5] has as its target FH 10–11 (complement factor H, CCP modules 10–11) (human) (UniProt P08603). Nature of the experiment: SEC; elution volume from a calibrated size-exclusion column (Hi-Load 16/60 Superdex 75) during purification; both purified.
For experiment [6] the target is unchanged. As to the kind of experiment: SAXS; synchrotron SAXS, 20 °C, phosphate-buffered saline, 0.3–10.7 mg/mL, extrapolated to infinite dilution; mass from I(0) against bovine serum albumin and from the dummy-atom model volume; both purified.

On to “FH 10–12 (complement factor H, CCP modules 10–12) (from UniProt P08603 566-745) (domain or fragment)”, for which the binding result in experiment [1] is given as “no binding”; in experiment [2], “no binding (tested: 0.3–10.7 mg/mL)”.

For “FH 11–12 (complement factor H, CCP modules 11–12) (from UniProt P08603 627-747) (domain or fragment)”, the results for the binding entry in experiment [3] and in experiment [4] were “no binding” and “no binding (tested: 0.3–10.7 mg/mL)”, respectively.

Regarding “FH 10–11 (complement factor H, CCP modules 10–11) (from UniProt P08603 566-687) (domain or fragment)”, the binding result in experiment [5] was “no binding”; in experiment [6], “no binding (tested: 0.3–10.7 mg/mL)”.
